Data taken from patent US11925178B1, “2′-alkyloxy-6′-phenyl[3,4′-bipyridine]-3′-carbonitrile as an insecticidal agent against Aphis craccivora” (priority 2023, dated 2024).

How the values were obtained:
[1] = system: adults of cowpea aphid (Aphis craccivora); experiment: Leaf dipping insecticidal bioassay, adults of cowpea aphid; type: in vivo; settings: after 24 h of treatment, probit analysis
Protocol: (§1) The original batches of cowpea aphid insects were collected from pest's laboratory, Plant Protection Research Institute, Agricultural Research Center. The target compounds were screened for their insecticidal activity towards nymphs and adults of cowpea aphid.
(§2) The insecticidal activities of compounds 4 and 5 were measured by using leaf dipping method under the same reported laboratory conditions. Five concentrations of compound 4, 5 and 0.1% Tween-80 as a surfactant were used. Nearly the same size 30 nymphs and 30 adults of cowpea aphid insects were used for dipping for 10 second in every concentration of each compound (repeat three times). Insects which tested were allowed to stand to dry at room temperature for about half an hour. In the control experiment, the insects were dunked in distilled water and 0.1% tween-80 only. These applications were carried out at 5% relative humidity, and at a temperature of 25° C. After the used insect had dried, they were transferred to glass jars containing water. With a new binocular microscope, the aphid mortality was taken after 24 hrs of treatment. Any aphid that was unable to move was considered dead. The LC50 values used to evaluate the insecticidal activity were estimated by probit analysis.

[2] = system: nymphs of cowpea aphid (Aphis craccivora); experiment: Leaf dipping insecticidal bioassay, nymphs of cowpea aphid; type: in vivo; settings: after 24 h of treatment, probit analysis
Protocol: as §1, §2

| SMILES | Slope [1] | Slope [2] |
| --- | --- | --- |
| C/C(=N\C#N)N(C)Cc1ccc(Cl)nc1 [Acetamiprid, acetamiprid, reference compound] | 0.387 | 0.381 |
| CCOc1nc(-c2ccccc2)cc(-c2cccnc2)c1C#N [Compound 4, 2′-Ethoxy-6′-phenyl[3,4′-bipyridine]-3′-carbonitrile] | 0.461 | 0.397 |
| COc1nc(-c2ccccc2)cc(-c2cccnc2)c1C#N [Compound 5, 2′-Methoxy-6′-phenyl[3,4′-bipyridine]-3′-carbonitrile] | 0.492 | 0.322 |
